Earlier results, collected in patent publication US20230349886A1, “SYSTEMS AND METHODS FOR PREDICTING CARDIOTOXICITY OF MOLECULAR PARAMETERS OF A COMPOUND BASED ON MACHINE LEARNING ALGORITHMS” (UTI Limited Partnership, priority 2015, published 2023).
pIC50: −log10 of the molar value.

Protein sequences, listed by entry. Tags and fused reporters are not part of them. Residues count along the entry.
UniProt Q13936, 1-2138 isoform Q13936-12: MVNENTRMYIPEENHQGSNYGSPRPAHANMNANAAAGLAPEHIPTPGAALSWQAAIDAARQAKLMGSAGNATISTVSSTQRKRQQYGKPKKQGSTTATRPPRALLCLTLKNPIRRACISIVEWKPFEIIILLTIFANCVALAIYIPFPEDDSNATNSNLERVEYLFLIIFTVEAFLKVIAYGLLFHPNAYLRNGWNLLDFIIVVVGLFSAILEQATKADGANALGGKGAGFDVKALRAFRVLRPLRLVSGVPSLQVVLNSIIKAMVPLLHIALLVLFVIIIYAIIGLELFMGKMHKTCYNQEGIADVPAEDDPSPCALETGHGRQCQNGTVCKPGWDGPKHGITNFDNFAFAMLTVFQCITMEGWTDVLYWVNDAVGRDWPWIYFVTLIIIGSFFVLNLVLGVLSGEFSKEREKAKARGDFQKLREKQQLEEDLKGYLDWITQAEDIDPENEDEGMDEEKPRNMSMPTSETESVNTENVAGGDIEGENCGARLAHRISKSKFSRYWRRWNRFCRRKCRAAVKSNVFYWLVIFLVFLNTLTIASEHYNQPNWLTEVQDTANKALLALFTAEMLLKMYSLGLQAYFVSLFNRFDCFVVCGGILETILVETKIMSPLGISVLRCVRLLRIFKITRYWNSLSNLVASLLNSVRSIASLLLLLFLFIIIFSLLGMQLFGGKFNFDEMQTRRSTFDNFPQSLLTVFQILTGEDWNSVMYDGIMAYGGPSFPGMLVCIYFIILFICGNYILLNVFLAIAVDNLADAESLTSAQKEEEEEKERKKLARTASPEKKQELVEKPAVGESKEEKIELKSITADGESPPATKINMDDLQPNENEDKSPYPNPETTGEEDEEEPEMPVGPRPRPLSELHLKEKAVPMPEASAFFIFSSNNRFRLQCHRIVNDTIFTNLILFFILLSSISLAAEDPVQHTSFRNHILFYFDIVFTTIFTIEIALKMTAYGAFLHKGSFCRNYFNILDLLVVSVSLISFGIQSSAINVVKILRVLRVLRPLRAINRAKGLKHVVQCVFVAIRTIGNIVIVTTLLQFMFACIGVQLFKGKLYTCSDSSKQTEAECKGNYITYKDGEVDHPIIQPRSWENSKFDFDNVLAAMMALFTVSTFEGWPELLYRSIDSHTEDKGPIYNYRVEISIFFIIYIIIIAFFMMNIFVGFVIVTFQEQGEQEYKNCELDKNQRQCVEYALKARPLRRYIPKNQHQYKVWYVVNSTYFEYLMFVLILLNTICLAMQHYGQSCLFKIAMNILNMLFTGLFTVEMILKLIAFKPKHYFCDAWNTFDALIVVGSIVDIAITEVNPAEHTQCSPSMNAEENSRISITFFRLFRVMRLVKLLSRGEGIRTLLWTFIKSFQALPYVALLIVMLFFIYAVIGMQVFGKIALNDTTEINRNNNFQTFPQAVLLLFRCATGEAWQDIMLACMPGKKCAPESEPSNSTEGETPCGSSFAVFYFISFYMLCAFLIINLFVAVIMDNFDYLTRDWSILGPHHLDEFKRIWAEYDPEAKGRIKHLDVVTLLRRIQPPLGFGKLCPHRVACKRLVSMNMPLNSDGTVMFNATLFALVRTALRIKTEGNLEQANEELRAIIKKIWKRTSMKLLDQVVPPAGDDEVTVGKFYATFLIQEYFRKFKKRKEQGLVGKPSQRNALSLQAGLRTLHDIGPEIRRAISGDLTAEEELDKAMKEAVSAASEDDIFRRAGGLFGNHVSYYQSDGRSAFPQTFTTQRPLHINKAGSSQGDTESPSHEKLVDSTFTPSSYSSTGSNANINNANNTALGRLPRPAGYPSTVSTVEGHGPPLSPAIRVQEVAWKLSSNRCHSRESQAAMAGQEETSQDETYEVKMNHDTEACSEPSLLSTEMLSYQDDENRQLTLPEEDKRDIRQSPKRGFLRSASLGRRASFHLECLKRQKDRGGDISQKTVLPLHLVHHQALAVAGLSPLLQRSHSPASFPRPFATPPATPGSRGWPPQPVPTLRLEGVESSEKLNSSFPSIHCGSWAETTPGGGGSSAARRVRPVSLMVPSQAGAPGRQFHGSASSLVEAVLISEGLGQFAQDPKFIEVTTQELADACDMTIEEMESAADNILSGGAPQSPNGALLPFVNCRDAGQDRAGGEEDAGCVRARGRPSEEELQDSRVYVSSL
UniProt Q14524, 1-2016 isoform Q14524-4 V215L/S234P: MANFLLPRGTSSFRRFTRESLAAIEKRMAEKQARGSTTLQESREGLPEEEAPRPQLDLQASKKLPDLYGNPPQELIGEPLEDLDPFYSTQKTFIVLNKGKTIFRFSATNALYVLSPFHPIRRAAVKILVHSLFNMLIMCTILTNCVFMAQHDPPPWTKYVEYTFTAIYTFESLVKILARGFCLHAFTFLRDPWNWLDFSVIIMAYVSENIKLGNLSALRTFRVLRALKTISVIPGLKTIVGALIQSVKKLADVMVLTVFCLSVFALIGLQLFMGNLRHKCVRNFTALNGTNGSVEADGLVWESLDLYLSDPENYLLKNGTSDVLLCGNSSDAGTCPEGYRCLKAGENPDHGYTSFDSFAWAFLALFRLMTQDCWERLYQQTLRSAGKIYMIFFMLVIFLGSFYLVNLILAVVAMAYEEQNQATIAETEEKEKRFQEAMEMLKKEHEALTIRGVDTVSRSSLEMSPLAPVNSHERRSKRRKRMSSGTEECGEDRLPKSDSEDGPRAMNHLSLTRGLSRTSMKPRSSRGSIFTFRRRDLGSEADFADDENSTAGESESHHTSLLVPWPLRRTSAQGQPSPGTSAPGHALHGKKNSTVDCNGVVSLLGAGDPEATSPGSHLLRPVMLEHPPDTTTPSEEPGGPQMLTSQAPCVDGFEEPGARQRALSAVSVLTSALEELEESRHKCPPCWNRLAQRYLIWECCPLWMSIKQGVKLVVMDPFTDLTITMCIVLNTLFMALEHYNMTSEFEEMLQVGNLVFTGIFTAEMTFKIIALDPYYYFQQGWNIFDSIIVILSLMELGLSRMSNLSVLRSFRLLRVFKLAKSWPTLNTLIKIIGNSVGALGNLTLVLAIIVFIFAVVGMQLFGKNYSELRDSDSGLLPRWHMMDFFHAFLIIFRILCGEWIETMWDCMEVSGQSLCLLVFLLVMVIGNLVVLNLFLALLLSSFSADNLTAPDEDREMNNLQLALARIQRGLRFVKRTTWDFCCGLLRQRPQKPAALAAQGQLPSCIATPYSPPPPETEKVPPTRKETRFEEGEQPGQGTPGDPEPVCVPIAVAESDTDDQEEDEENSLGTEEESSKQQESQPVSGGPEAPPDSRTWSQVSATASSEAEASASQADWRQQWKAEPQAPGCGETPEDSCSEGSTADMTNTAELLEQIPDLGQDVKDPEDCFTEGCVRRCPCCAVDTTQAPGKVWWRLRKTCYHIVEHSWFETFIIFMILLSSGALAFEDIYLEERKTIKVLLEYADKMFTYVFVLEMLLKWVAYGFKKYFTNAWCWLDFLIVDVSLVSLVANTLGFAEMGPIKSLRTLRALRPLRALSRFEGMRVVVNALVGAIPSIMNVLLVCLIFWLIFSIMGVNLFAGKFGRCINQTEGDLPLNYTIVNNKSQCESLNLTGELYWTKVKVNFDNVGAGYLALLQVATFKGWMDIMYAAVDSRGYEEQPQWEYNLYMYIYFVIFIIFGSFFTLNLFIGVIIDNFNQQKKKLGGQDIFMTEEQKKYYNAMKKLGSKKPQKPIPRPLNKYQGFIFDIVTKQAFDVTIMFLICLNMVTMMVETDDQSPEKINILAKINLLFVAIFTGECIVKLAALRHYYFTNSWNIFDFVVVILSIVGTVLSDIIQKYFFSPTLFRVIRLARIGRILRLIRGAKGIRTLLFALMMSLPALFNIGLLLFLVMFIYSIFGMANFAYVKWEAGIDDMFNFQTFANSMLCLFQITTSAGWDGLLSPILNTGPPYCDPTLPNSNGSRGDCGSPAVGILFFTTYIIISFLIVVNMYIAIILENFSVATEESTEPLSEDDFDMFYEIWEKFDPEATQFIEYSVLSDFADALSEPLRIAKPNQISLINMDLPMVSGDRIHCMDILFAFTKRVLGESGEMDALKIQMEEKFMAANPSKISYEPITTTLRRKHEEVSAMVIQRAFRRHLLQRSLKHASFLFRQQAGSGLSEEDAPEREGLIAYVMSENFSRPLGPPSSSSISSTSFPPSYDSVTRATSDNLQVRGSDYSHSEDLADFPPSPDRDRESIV

Legend:
Cav1.2 = Cav1.2 (Homo sapiens, UniProt Q13936); settings: Brown dataset; on CAV1.2 max inhib: test concentration or dose not given here
Nav1.5 = Nav1.5 (Homo sapiens, UniProt Q14524); further: test concentration or dose not given here

Compound | CAV1.2 max inhib (Cav1.2) | pIC50 (Cav1.2; read-out: CAV1.2 IC50) | NAV1.5 max inhib (Nav1.5)
COc1cc2c(cc1OC)C(=O)C(CC1CCN(Cc3ccccc3)CC1)C2 (centres unmarked) [donepezil] | 55.7 | 4.46 | 48.9
COC(=O)C1=C(C)NC(C)=C(C(=O)OC)C1c1ccccc1[N+](=O)[O-] [nifedipine] | 88.3 |  | 54.1
